Experimental data published in CN115703833A.
These are yes or no findings as the source states them, for the method shown. Some entries that bind do so weakly or less than the wild type.

Molecular target: 食蟹猴CD47-his蛋白 (Acro biosystems, cat#CD7-C52H1, MW 15.8 kDa) (cynomolgus monkey)
Assay: capture ELISA; antibody captured by goat anti-mouse IgG Fcγ, biotinylated cynomolgus CD47 at 60 nM

binding: binds
B1: 本发明的单克隆抗体1D5 (小鼠抗CD47单克隆抗体) (antibody, V domains shown)
VH: EVQLQQSGAELVRSGASVKLSCTASGFNIKDYYMSWVRQRPEQGLEWIGWIDPKNGDTAYDPKFQGKATMTADTSSNTAYLQFSSLTSEDTADYYCNAGGRGGFAYWGQGTLVTVSA
VL: DVLMTQTPLSLPVSLGDQASISCRSNQSIVHSNGYTYLEWYLQKPGQSPKLLIYKVSNRFSGVPDRFSGSGSGTDFTLRISRVEAEDLGVYYCFQGSHVPRTFGGGTKLEIK
